Data as given in the supplement of paper PMC10849652.
The list shows a part of the results.

Sequences of proteins named here, by UniProt entry; tags and fusion partners are left off. A change or cut given only in a name is not applied to a line headed by its entry.
UniProt Q6ZSS7: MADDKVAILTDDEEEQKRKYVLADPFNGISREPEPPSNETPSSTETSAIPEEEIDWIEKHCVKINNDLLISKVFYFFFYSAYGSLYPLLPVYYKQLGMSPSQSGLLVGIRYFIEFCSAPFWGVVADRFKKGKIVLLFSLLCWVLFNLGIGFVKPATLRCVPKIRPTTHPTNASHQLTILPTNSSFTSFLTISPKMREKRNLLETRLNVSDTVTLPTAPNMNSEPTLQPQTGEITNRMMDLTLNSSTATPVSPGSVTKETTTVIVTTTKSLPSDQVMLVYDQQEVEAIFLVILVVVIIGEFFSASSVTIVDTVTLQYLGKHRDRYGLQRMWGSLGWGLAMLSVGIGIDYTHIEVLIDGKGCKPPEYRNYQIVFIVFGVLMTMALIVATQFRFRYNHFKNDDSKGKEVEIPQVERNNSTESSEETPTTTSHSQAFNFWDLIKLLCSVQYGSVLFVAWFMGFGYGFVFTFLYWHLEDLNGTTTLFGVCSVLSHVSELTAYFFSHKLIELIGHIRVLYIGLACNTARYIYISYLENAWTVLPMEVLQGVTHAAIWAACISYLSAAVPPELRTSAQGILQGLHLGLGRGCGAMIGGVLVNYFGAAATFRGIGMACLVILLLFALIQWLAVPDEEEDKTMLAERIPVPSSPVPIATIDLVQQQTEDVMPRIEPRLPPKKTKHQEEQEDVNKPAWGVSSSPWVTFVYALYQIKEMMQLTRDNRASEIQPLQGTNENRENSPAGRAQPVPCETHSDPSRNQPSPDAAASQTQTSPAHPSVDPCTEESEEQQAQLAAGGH
UniProt P48740: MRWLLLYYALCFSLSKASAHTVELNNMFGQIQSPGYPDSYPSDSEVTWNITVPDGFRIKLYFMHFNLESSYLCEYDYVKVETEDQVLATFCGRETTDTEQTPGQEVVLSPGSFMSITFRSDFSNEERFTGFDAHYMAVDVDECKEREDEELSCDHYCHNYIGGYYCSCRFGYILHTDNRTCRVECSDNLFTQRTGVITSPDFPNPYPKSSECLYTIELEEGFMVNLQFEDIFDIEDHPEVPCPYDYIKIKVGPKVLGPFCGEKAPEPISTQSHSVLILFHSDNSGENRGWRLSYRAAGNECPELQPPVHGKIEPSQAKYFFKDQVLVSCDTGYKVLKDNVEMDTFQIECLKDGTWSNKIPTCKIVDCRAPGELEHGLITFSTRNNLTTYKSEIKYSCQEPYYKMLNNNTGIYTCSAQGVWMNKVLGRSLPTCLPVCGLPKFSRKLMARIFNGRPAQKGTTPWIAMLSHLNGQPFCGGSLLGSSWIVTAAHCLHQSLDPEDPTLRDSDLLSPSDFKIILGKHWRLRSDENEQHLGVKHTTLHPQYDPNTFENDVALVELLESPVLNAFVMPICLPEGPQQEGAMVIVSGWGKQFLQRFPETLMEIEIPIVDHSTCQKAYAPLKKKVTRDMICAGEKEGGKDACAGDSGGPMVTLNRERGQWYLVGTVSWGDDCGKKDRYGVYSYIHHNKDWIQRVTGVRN
UniProt P21741: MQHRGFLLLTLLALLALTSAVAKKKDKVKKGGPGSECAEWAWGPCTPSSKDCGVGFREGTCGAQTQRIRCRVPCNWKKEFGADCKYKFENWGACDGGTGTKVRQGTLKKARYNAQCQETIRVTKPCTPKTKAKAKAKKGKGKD
UniProt Q02078: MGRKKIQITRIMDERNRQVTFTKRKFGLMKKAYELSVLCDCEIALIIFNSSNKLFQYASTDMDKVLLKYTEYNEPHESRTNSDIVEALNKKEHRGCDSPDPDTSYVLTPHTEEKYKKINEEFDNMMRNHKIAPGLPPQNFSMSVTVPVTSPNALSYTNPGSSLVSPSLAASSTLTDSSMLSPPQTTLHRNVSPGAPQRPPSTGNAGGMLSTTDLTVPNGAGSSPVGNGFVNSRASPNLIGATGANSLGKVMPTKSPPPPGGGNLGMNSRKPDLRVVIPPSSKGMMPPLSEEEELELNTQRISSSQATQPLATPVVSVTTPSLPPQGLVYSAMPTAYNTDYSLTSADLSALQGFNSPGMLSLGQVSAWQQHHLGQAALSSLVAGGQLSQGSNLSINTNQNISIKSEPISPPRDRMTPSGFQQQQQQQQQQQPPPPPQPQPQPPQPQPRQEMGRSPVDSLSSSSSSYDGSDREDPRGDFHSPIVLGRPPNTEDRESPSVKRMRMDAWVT
UniProt Q9H204: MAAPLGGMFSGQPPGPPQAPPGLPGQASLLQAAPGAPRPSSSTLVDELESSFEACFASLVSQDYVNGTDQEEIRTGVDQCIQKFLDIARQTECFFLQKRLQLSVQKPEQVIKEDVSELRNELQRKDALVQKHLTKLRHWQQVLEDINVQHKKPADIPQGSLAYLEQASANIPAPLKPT
UniProt Q6NUT3: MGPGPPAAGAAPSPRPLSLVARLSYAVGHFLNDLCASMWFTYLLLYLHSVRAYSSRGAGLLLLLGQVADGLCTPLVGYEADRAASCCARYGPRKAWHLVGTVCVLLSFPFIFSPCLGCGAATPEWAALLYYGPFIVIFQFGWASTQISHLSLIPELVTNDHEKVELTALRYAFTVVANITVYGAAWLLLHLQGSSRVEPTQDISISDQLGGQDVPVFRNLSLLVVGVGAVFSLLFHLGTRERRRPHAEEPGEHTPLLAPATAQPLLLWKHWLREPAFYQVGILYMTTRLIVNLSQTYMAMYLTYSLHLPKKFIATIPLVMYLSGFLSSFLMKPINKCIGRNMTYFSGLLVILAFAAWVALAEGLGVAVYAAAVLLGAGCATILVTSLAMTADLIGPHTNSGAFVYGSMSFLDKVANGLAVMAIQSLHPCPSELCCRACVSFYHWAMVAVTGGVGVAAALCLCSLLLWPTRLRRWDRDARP
UniProt Q6P2C8: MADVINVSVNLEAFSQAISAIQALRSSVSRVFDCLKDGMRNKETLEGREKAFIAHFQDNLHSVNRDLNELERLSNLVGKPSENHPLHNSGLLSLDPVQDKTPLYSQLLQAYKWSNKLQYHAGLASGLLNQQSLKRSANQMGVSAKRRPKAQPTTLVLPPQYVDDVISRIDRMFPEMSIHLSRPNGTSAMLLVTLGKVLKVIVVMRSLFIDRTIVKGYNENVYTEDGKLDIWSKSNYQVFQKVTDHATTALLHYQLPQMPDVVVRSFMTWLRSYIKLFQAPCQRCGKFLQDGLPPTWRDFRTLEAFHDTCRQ
UniProt Q9H3U5: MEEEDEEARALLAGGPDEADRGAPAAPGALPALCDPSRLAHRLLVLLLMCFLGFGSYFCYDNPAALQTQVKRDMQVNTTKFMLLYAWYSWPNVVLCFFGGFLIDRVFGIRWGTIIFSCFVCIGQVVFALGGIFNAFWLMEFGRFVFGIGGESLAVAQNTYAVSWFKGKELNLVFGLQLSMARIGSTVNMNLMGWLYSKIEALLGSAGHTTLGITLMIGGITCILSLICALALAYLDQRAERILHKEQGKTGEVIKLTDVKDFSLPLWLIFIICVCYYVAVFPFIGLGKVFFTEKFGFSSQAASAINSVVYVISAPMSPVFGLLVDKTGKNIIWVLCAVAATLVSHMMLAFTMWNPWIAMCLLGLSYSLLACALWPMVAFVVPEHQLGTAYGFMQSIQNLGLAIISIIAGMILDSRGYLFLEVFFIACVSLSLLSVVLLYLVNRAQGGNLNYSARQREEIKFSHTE
UniProt Q9Y4C4: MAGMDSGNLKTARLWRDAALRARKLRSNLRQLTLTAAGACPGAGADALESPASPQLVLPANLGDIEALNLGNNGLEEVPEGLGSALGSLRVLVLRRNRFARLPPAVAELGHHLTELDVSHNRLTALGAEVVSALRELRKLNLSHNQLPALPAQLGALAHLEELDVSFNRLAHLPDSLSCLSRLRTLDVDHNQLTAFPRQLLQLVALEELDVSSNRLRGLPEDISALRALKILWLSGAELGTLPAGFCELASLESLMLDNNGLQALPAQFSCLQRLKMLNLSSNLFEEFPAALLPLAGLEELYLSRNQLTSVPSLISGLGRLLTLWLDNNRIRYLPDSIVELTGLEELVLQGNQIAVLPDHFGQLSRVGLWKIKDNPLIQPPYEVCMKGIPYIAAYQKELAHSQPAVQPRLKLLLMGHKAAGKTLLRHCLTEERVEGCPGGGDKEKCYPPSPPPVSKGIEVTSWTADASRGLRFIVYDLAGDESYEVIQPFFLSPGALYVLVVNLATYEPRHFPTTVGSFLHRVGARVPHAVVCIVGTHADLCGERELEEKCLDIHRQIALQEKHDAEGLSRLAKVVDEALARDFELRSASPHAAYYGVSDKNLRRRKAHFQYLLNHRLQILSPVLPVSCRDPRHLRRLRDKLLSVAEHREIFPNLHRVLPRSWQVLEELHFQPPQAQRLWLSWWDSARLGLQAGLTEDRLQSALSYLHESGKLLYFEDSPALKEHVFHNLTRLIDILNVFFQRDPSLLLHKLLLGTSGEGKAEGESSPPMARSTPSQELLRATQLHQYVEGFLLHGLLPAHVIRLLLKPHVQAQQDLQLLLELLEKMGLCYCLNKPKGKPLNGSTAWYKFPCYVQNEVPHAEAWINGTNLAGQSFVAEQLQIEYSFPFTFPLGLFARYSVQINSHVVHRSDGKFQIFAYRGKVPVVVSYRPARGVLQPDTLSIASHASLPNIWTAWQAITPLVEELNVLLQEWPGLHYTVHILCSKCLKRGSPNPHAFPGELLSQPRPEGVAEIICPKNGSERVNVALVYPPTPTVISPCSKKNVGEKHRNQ
UniProt Q8NHS3: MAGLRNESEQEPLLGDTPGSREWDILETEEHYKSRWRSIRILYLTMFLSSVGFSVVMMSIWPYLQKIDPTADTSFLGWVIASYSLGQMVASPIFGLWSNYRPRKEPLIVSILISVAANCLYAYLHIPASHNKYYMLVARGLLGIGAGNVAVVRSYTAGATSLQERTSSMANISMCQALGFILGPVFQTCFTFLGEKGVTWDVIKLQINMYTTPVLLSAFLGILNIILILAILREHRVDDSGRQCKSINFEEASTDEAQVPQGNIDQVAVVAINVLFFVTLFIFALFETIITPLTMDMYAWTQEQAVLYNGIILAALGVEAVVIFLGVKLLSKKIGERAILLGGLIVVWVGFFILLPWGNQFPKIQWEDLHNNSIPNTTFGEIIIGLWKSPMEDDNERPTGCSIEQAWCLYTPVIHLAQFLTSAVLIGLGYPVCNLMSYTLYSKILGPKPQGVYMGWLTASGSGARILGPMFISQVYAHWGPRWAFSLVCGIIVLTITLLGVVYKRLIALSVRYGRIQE
UniProt O43462: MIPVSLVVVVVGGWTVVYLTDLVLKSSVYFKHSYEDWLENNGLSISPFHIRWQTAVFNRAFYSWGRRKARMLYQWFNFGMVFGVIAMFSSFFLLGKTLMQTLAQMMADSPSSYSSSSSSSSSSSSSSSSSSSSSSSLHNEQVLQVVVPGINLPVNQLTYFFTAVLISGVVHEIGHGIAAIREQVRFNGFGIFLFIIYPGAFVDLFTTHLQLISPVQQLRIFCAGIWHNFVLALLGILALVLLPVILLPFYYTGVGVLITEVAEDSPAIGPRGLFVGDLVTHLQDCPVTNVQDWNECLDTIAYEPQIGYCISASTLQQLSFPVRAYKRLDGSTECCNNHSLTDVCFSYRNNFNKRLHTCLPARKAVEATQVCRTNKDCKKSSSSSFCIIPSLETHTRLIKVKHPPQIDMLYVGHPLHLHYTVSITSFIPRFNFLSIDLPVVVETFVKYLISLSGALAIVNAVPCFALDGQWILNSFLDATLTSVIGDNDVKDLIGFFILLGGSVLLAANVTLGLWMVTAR
UniProt Q9P086: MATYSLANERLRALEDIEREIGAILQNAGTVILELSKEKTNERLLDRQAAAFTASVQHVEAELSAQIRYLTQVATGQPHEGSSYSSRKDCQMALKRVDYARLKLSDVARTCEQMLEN
UniProt Q9NWA0: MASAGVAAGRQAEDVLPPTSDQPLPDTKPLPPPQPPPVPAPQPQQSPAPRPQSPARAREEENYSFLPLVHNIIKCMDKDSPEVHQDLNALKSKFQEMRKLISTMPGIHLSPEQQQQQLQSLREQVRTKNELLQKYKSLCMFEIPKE
UniProt Q9Y3C7: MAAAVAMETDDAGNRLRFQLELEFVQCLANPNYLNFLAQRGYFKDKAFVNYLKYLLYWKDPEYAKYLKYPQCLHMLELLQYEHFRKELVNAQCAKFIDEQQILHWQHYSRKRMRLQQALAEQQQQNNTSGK
UniProt O14770: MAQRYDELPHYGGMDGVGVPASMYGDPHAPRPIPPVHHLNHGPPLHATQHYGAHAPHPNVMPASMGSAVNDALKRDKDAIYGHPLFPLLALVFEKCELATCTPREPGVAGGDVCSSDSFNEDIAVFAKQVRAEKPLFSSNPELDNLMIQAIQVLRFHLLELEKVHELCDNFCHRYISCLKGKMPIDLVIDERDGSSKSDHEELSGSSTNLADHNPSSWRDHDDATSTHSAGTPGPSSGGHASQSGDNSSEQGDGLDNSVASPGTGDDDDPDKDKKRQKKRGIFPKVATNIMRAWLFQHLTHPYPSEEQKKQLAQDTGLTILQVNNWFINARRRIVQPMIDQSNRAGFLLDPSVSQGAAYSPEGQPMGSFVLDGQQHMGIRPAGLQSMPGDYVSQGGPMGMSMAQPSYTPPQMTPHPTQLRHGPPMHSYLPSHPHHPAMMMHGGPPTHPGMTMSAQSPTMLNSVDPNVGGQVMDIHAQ

compound: CS(=O)(=O)c1ccc(-c2cnc(N)c(C(=O)Nc3ccccc3)n2)cc1; experiment: log2 fold change, soluble protein after heating vs DMSO (PISA); higher = thermal stabilisation; K562 cells, 10 uM, 30 min; active = over 0.2 and 3.5 SD of the protein, either way, in both replicates (recomputed)
Procedure, shortened: (§1)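 K562 cells at 2×10^6 cells/mL were given 10 μM compound for 30 min. Aliquots then went through 3 min of heating across 48°C-58°C, were pooled, and were extracted in PBS with 0.5% NP-40 at 4°C, and the supernatant after 21,000xg for 90 min was quantified by TMTpro 16plex LC-MS/MS with channel sums equalised. Thermal stability relative to control samples, from duplicates, is given as log2 fold change.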

Target | log2 fold change
METTL17 isoform 3 (UniProt Q9H7H0) | inactive: 0
MFSD6 (UniProt Q6ZSS7) | inactive: -0.017
MASP1 isoform 2 (UniProt P48740) | inactive: -0.086
MFAP3 (UniProt P55082) | inactive: -0.012
MAU2 (UniProt Q9Y6X3) | inactive: -0.243
MDK (UniProt P21741) | inactive: -0.215
MEF2A (UniProt Q02078) | inactive: 0.061
MED28 (UniProt Q9H204) | inactive: 0.145
MFSD12 isoform 3 (UniProt Q6NUT3) | inactive: 0.17
MEGF9 (UniProt Q9H1U4) | inactive: 0.035
MED27 (UniProt Q6P2C8) | inactive: 0.06
MFSD1 isoform 6 (UniProt Q9H3U5) | inactive: 0.035

compound: C[C@@H](Oc1cc(-c2cnn(C3CCNCC3)c2)cnc1N)c1c(Cl)ccc(F)c1Cl [crizotinib]; experiment: as above
Procedure, shortened: as §1

Target | log2 fold change
MFHAS1 (UniProt Q9Y4C4) | inactive: 0.17
MFSD8 (UniProt Q8NHS3) | inactive: -0.013
MBNL2 (UniProt Q5VZF2) | inactive: 0.098
MBLAC1 (UniProt A4D2B0) | inactive: 0.038
MBTPS2 (UniProt O43462) | inactive: 0.284
MEF2A isoform 2 (UniProt Q02078) | inactive: 0.014
MEGF8 (UniProt Q7Z7M0) | inactive: -0.242
MED11 (UniProt Q9P086) | inactive: -0.095
MED9 (UniProt Q9NWA0) | inactive: -0.075
MED31 (UniProt Q9Y3C7) | inactive: -0.145
MBIP (UniProt Q9NS73) | inactive: 0.048
MGRN1 isoform 2 (UniProt O60291) | inactive: -0.015
MEIS2 (UniProt O14770) | inactive: -0.337

compound: C[C@@H]1COCCN1C2=NC(=NC(=C2)C3(CC3)S(=O)(=O)C)C4=C5C=CNC5=CC=C4; experiment: as above
Procedure, shortened: as §1

Target | log2 fold change
MED13L (UniProt Q71F56) | inactive: 0.101
METTL7B (UniProt Q6UX53) | inactive: 0.022
MFSD6 (UniProt Q6ZSS7) | inactive: -0.184
MFSD8 (UniProt Q8NHS3) | inactive: 0.04
MFAP3 (UniProt P55082) | inactive: 0.045
MBTPS2 (UniProt O43462) | inactive: -0.119
MEF2A (UniProt Q02078) | inactive: 0.136
METTL15 (UniProt A6NJ78) | inactive: 0.556
MEF2C isoform 2 (UniProt Q06413) | inactive: -0.004
MED27 (UniProt Q6P2C8) | inactive: 0.053
MFSD1 isoform 6 (UniProt Q9H3U5) | inactive: 0.076

compound: C[C@H](C1=CC=C(C=C1)C(=O)NC2=C3C=CNC3=NC=C2)N; experiment: as above
Procedure, shortened: as §1

Target | log2 fold change
MED13L (UniProt Q71F56) | inactive: 0.138
MFHAS1 (UniProt Q9Y4C4) | inactive: -0.034
METTL17 isoform 3 (UniProt Q9H7H0) | inactive: 0.139
MFSD6 (UniProt Q6ZSS7) | inactive: 0.056
MFSD8 (UniProt Q8NHS3) | inactive: -0.023
MED21 (UniProt Q13503) | inactive: -0.2
MASP1 isoform 2 (UniProt P48740) | inactive: 0.652
MBLAC1 (UniProt A4D2B0) | inactive: -0.007
MBTPS2 (UniProt O43462) | inactive: -0.23
MEF2A isoform 2 (UniProt Q02078) | inactive: 0.024
MDK (UniProt P21741) | inactive: 0.053
METTL9 (UniProt Q9H1A3) | inactive: -0.123
MED28 (UniProt Q9H204) | inactive: -0.12
MFSD12 isoform 3 (UniProt Q6NUT3) | inactive: -0.213
MATK isoform 2 (UniProt P42679) | inactive: 0.154
MEGF9 (UniProt Q9H1U4) | inactive: 0.225
MED27 (UniProt Q6P2C8) | inactive: -0.031
MFSD9 (UniProt Q8NBP5) | inactive: 0.054
MFSD1 isoform 6 (UniProt Q9H3U5) | inactive: -0.03
MGRN1 isoform 2 (UniProt O60291) | inactive: 0.225
MEIS2 (UniProt O14770) | inactive: -0.095

compound: C[C@H](Nc1ncnc2nc[nH]c12)c1cc2cccc(Cl)c2c(=O)n1-c1ccccc1 [duvelisib]; experiment: as above
Procedure, shortened: as §1

Target | log2 fold change
MFHAS1 (UniProt Q9Y4C4) | inactive: 0
MFSD6 (UniProt Q6ZSS7) | inactive: -0.017
MBTPS2 (UniProt O43462) | inactive: -0.044
MDK (UniProt P21741) | inactive: -0.063
METTL9 (UniProt Q9H1A3) | inactive: -0.184
METTL15 (UniProt A6NJ78) | inactive: 0.193
MED28 (UniProt Q9H204) | inactive: 0.108
MATK isoform 2 (UniProt P42679) | inactive: 0.035
MED9 (UniProt Q9NWA0) | inactive: 0.061
MED27 (UniProt Q6P2C8) | inactive: 0.09
MFSD9 (UniProt Q8NBP5) | inactive: 0.032
MEIS2 (UniProt O14770) | inactive: -0.045
